Some entries share one result that the patent states for a list of compounds. For at least one compound, name, drawing or mass did not settle the structure.
System: CA-MRSA 40065
Assay: Biocidal activity in bacterial suspension (Example 18)
Format: cell-based, Staphylococcus aureus
Settings: Table 2, 15 ppm [Cl+], inoculum 1.57-1.75 × 10^6 CFU/mL
Description: Logarithmic-phase cultures of MRSA were prepared using similar way except TSA broth was used instead.
Biocidal activity of synthetic compounds was completed as followed. To 20 mL of bacterial suspension (10^5 or 10^6 cfu/mL) in a centrifuge tube was added 30 μL solution of synthetic compounds (0.282 M stock solution) to achieve a final [Cl^+] of 15 ppm. Timing of the exposure to the disinfectant was started immediately with the addition of the synthetic compound. After predetermined contact time, 1.0 mL aliquots were withdrawn and added to an equal volume of 0.02 N sodium thiosulfate in PBS (0.1 M, pH 7.4). The quenched suspension was serially diluted and 100 μL of each resulting dilution was placed onto nutrient agar plates. After being incubated at 37° C. for 24 hours, the viable bacterial colonies on the plates were counted. Bacterial reduction was reported according to:
Percentage reduction of bacteria (%)=(A−B)/A×100
Log reduction=Log(A/B) (4)
where A is the number of bacteria in the starting inoculum (cfu/mL), and B is the number of bacteria retrieved from synthetic compounds (cfu/mL).

Structure (SMILES)	Bacteria reduction % (contact 10 min) [%]	Bacteria reduction % (contact 60 min) [%]
CC1(C)C(=O)N(CCC[N+](C)(C)C)C(=O)N1Cl [Compound 2]	> 90	> 99
CC1(C)C(=O)N(CCC[N+](C)(C)CC[N+](C)(C)C)C(=O)N1Cl.[Cl-].[Cl-] [Compound 12]	> 90	> 99

Source: patent US20150118179A1, “BIOCIDAL COMPOUNDS AND METHODS FOR USING SAME” (UNIVERSITY OF MANITOBA, priority 2012, published 2015)
